Measured values taken from patent US20200246364A1, “MEDICAL APPLICATION OF COMPOSITION OF FRUCTOSE-1,6-BISPHOSPHATE AND BLOOD CONCENTRATION STABILIZER THEREOF” (ZHEJIANG UNIVERSITY, priority 2017, published 2020).

Columns and labels:
Assay type in all cases: cell-based, human
[1] = test system: U87-MG; assay: Intracellular glycolytic intermediates (LC-MS/MS) and FBP in culture medium; conditions: 1.6 mM added
Description: (§1) Rat glioma cell strains (C6), human glioma cell strains (U87-MG, U-251, SHG-44) and patient-derived glioma cells (tumor 1, tumor 3) were incubated in a culture medium containing 1.6 mM of trisodium fructose-1,6-bisphosphate, and after 36 h, levels of glycolytic intermediates including glucose-6-phosphate G6P, fructose-1,6-bisphosphate FBP, glyceraldehyde 3-phosphate (GAP), dihydroxyacetone phosphate (DHAP), and […] 3-phosphoglyceric acid PGA in respective cells were measured by using LC-MS/MS; and additionally, the levels of fructose-1,6-bisphosphate in each glioma cell strain at 12 h and 36 h were measured.

[2] = test system: patient-derived glioma cells Tumor 3; assay: as above; conditions: Tumor 3, 1.6 mM added
Description: as §1

[3] = test system: SHG-44; assay: as above; conditions: SHG-44, 1.6 mM added
Description: as §1

[4] = test system: patient-derived glioma cells Tumor 1; assay: as above; conditions: Tumor 1, 1.6 mM added
Description: as §1

[5] = test system: U-251; assay: FBP in culture medium; conditions: U-251, 1.6 mM added

O=C(COP(=O)(O)O)[C@@H](O)[C@H](O)[C@H](O)COP(=O)(O)O [FBP, fructose-1,6-bisphosphate]
Levels of FBP in the culture medium ([1]; 12 h): 0.76 mg/mL | Levels of FBP in the culture medium ([1]; 36 h): 0.71 mg/mL | Levels of FBP in the culture medium ([2]; 12 h): 0.68 mg/mL | Levels of FBP in the culture medium ([2]; 36 h): 0.61 mg/mL | Levels of FBP in the culture medium ([3]; 12 h): 1.07 mg/mL | Levels of FBP in the culture medium ([3]; 36 h): 0.72 mg/mL | Levels of FBP in the culture medium ([4]; 12 h): 0.17 mg/mL | Levels of FBP in the culture medium ([4]; 36 h): 0.18 mg/mL | Levels of FBP in the culture medium ([5]; 12 h): 1.35 mg/mL | Levels of FBP in the culture medium ([5]; 36 h): 1.25 mg/mL
